Data taken from ChEMBL document CHEMBL3988442, “University of Dundee, Small-Polar-MMV Screening Library” (2021).

T. brucei: 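Whole-parasite assay of Trypanosoma brucei over 72 hours; the read-out is not stated. Tested at 30 µM. Direction is inferred from retests: higher values go with stronger inhibition. Values scatter widely below zero; nearly all retest evidence comes from the higher of the two concentrations used. Size under these conditions: about 64,000 compounds, about 940 of them at 50% or above in at least one test.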
Toxoplasma: 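Assay of Toxoplasma gondii numbers, read through their beta-galactosidase reporter with a colour substrate. Compounds at 10 µM. Higher reads as fewer parasites (inferred from which compounds were picked for retests). Of about 67,000 compounds tested this way, about 260 (0.38%) reached 50% or more in at least one test.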

Values are the deposited “Percent Effect”, in %. The controls that fix the scale are not given in the record; negative values are as filed. The compounds are a random part of those screened. A dash means the value is not listed here; it may have been measured.

compound	T. brucei	Toxoplasma
CC(=O)c1cccc(S(=O)(=O)NCCNC(=O)c2snnc2C)c1	-	13.12
CC(C)c1ccc(CN2CCC(CNS(=O)(=O)C3CC3)C2)cc1 (stereo unspecified)	6.491	2.363
Cc1noc2ncnc(N3CCC(O)(Cn4ccnc4)CC3)c12	-16.35	-0.6901
COCCc1noc(CN(C)C2CCCN(c3ccc(C)nn3)C2)n1 (stereo unspecified)	-27.67	0.1101
O=C(O)C(F)(F)F.O=C(O)C(F)(F)F.[H][C@@]12COC[C@]1(C(=O)NCCc1cccs1)CN(Cc1ccncc1)C2	-25.85	7.753
Nc1nc(SCc2ccc3c(c2)OCO3)ns1	-12.27	-12.95
CS(=O)(=O)Cc1ccc(C(=O)NCC2Cc3ccccc3O2)cc1 (stereo unspecified)	-27.53	3.824
CN1C[C@@H](O)[C@]2(CCN(C(=O)c3ccccc3)C2)S1(=O)=O	-27.41	14.94
Cc1nc2ccn(C(C)C)c(=O)c2cc1C(=O)O	-29.79	-0.5021
Cc1nc(C(NC(=O)c2cc(C(C)C)[nH]n2)c2ccccc2)n[nH]1 (stereo unspecified)	-30.66	-6.082
CCN1CCC2(CC1)CC(NC(=O)c1csnn1)c1ccccc1O2.O=C(O)C(F)(F)F (stereo unspecified)	-39.6	5.065
c1cncc(-c2c[nH]c([C@@H]3COCCN3Cc3ccncc3)n2)c1	11.72	13.86
Cc1nc(C2CCCN2CCCS(N)(=O)=O)no1 (stereo unspecified)	-12.1	0.2368
COc1cccc(CN2CCc3nc(C(N)=O)sc3CC2)c1.O=C(O)C(F)(F)F	-	-4.506
Cc1c(COc2ccccc2)cccc1NC(=O)N1CC[C@H](O)C1	5.569	4.091
COc1ccccc1N1CCN(C(=O)Cn2nc(C)c(Cl)c2C)CC1	-	15.13
CNc1nc2c(c(C(=O)N3CCCC3)n1)CN(Cc1cc(C)no1)CC2	-49.24	11
O=C(O)CCNC(=O)Cc1csc(-c2cccc(Cl)c2)n1	-	10.32
N#CCCN(C(=O)CN1CCCC1C1CCCCC1)c1ccccc1 (stereo unspecified)	-41.89	-11.34
Cc1c[nH]c(C2COCCN2C(=O)CCc2c(C)n[nH]c2C)n1 (stereo unspecified)	2.228	-22.52
CC(C)N(Cc1ccccn1)C(=O)CCC(=O)c1ccc(F)cc1F	-29.5	1.147
Cc1occc1C(=O)N1CCC2(CCCN(Cc3nccs3)C2)C1.O=C(O)C(F)(F)F (stereo unspecified)	-37.74	1.145
[H][C@@]12CN(Cc3cc4ccccc4o3)C[C@]1(C(=O)O)CN(CC1CC1)C2=O	0.6172	-4.792
O=C(c1cc2c(Cl)cccc2[nH]1)N1CCN(CCc2ccccn2)CC1	6.57	-24.9
CCc1nc2c(N3CCC4(CC3)CC(=O)N(CC)C4)ncnc2o1	-9.437	-3.795
COc1cc2nc(C)sc2cc1NC(=O)CN(C)C(C)C	-38.19	-21.71
O=C(O)c1cn(CC2CCCN(c3nccc4occc34)C2)nn1 (stereo unspecified)	4.821	1.561
c1ccc(Cc2noc(CN3CCCC3Cn3cccn3)n2)cc1 (stereo unspecified)	-1.526	-4.093
[H][C@@]12CC(=O)N(CC)[C@@]1([H])CCN2S(=O)(=O)Cc1ccc(C)cc1	-10.55	18.49
Cc1ccc(O)c(C(=O)N2CCCC(NC(=O)C(C)C)C2)c1 (stereo unspecified)	14.26	-2.135
CSCC[C@@H](CO)Nc1ccc(-c2nc(-c3ccccc3C)no2)cn1	99.8	-2.254
COc1ccc(NC(=O)NCc2ccnc(N(C)C)c2)cn1	-5.416	-7.825
Cc1ccc(C(C)(O)CNC(=O)NCCc2ccc3c(c2)CCO3)o1 (stereo unspecified)	-32.9	14.85
O=C(c1cccs1)N1CCc2nnc(COc3cncnc3)n2CC1	-	-4.904
CC(C)Oc1cccc(CNC(=O)N2CCC(N3CC=CC3)C2)c1 (stereo unspecified)	-20.39	-3.293
CN(C)C(=O)N1CC[C@@H](O)[C@@H]1Cc1cnn(C)c1	-10.72	-6.433
C=C(C)CN1CCC(NC(=O)NCCc2ccc(N(C)C)cc2)CC1	-10.67	-7.08
CC(C)c1nn(C)c(N(C)C)c1CNCC(O)c1ccccc1 (stereo unspecified)	9.453	8.157
CN(CCc1ccccn1)[C@@H]1CCN(c2cc(C(N)=O)ccn2)C[C@H]1O	-15.06	8.972
CS(=O)(=O)N[C@H]1CCO[C@]2(CCN(CC3CCOCC3)C2)C1.O=C(O)C(F)(F)F	-13.11	-7.747
Cc1cc(C)c(CNC(=O)N2CCCC2c2ccc(F)cc2)c(=O)[nH]1 (stereo unspecified)	15.74	7.531
CCN(CC)Cc1cn2c(n1)CN(C1CCOC1)CC2.O=C(O)C(F)(F)F.O=C(O)C(F)(F)F (stereo unspecified)	-56.79	8.244
CC(=O)NCc1ccc(S(=O)(=O)NC(=O)c2ccc3c(c2)COC3)cc1	-41.45	3.244
Cn1cc(-c2cnc(N3CCOCC3)nc2)cc1C(=O)NCCO.O=C(O)C(F)(F)F	-11.81	-1.054
CC(C)c1nnc2n1CCN(Cc1ccc3c(c1)OCCO3)C2	-48.93	19.2
CCc1cc(C(F)(F)F)n2nc(C3CCCN3C(=O)COC)cc2n1 (stereo unspecified)	-28.26	2.074
O=C(Nc1cc(F)ccc1OCC1CCCO1)c1ccccn1 (stereo unspecified)	15.22	-8.21
O=C(O)C(F)(F)F.[H][C@@]12CCCO[C@]1([H])[C@@H](OCC)CN2CC1CC1	0.4123	-4.231
CCn1cc(CN2CCN(Cc3cccc(OC)c3)C(=O)C2)cc1C#N	-30.63	-58.17
Cn1c(C(=O)N2CCC(C(=O)N3CCCC3)CC2)c(Cl)c2ccccc21	23.55	-2.643
CN(Cc1ccc(Br)s1)Cn1nc(-c2ccccc2)oc1=O	-12.28	0.4802
COc1cc(CN2CCC3(CC(Nc4ccncn4)C3)C2)cc(OC)c1 (stereo unspecified)	14.77	-12.17
c1cnc(N2CCCC3(CCN(Cc4ccncc4)C3)C2)nc1 (stereo unspecified)	-	-2.205
COCc1cc(N2CCOC(c3ccc(F)cc3)C2)ncn1 (stereo unspecified)	-57.34	18.77
CN1CC(Oc2ccccc2)=NC(SCC(=O)c2ccccc2)=N1	-40.3	7.579
Cn1cc(-c2ncc3c(c2C(=O)O)CCN(Cc2ccco2)C3)cn1.O=C(O)C(F)(F)F	-50.82	3.794
CC(NCC(=O)NCC(=O)Nc1ccc(F)cc1)c1cccs1 (stereo unspecified)	-23.31	25.86
O=C(N1CCOCC(O)C1)C1(c2ccc(Cl)cc2)CCC1 (stereo unspecified)	-20.3	-14.49
CC(C)CN1C(=O)C2(CCN(CC3CCOCC3)C2)c2ccccc21.O=C(O)C(F)(F)F (stereo unspecified)	-1.145	12.08
COc1ccccc1C1SCC(=O)Nc2c1c(=O)[nH]n2C1CCOCC1 (stereo unspecified)	-25.74	1.324
CCC1(C(=O)O)CCCN(CCOCc2ccccc2)C1 (stereo unspecified)	-22.8	-2.264
[H][C@@]12C[C@H](C(=O)N3CCCC3)[C@@]([H])(CN(S(=O)(=O)CC(C)C)C1)O2	-56.16	8.19
CC(C)Oc1ccc(C(=O)NCc2ccnc(N3CCCC3)c2)cn1	15.35	-8.033
Cc1csc(C2(NCc3nnc(-c4ccco4)o3)CCCC2)n1	5.396	9.484
Cc1cccc(C(=O)N2CCC(C(=O)c3cc(F)ccc3F)CC2)n1	-	-0.8259
CCn1c(C)nnc1SCCNc1nc(C)nc2ncccc12	9.921	-3.433
CC(C)Oc1cccc(CC(=O)N(CC(N)=O)C2CCCC2)c1	-11.98	-55.45
Oc1ccc(N2CCN(Cc3cc4c(cc3Br)OCCO4)CC2)cc1	-25.51	-3.722
O=C(O)C(F)(F)F.[H][C@@]12CCC(=O)N(c3cnn(C)c3)[C@]1([H])CCN2CC1CCOCC1	-7.648	6.365
CC(C)[C@H]1CN(CCCO)C[C@@H]1NC(=O)CCC(F)(F)F	13.99	7.104
CC(C)NC(=O)CCC(=O)N1CCC(c2noc3cc(F)ccc23)CC1	-45.48	10.23
COc1ccccc1CC(NC(=O)N1CCC[C@@H]1CO)C(C)C (stereo partly specified)	-17.86	5.643
Cc1ncsc1C(=O)N1CCCC(CO)(CC2CC2)C1 (stereo unspecified)	-17.52	-3.107
Cc1cccc(S(=O)(=O)NCc2cccc(CS(C)(=O)=O)c2)c1	-49.23	10.03
Cc1ccc(C(=O)NCCN2CCOCC2)cc1N(C)S(C)(=O)=O	-19.21	-6.066
O=c1oc(-c2ccc(F)cc2)nn1CN1CCSCC1	-27.38	8.795
Cc1cccc2[nH]cc(CC(=O)N3CCC(Nc4cccnn4)CC3)c12	-29.37	30
CN1CCCC(CCCc2cccnc2)(C(N)=O)C1 (stereo unspecified)	3.029	0.9145
Cc1[nH]c2ccccc2c1-c1ccnc(NCCN2CCCCC2)n1	31.99	28.85
Cc1nc(C2CCCN2CCc2ccccn2)no1 (stereo unspecified)	-19.22	4.937
NC(=O)CSc1nnc2n1N=CN(c1ccccc1F)C2	-29.34	0.2533
CN1CCN(c2ccc(C(=O)N3CCCC(c4ncc[nH]4)C3)cc2)CC1 (stereo unspecified)	8.257	-5.177
O=C(O)CSc1nnc(-c2ccn[nH]2)n1-c1ccccc1Cl	-5.081	4.743